Article PMC8742403
No constants are given. Whether binding was seen depends on the method and setting. Binding seen in cells or lysates may run through a third protein. Some binding calls cover weakened binding; strength is not graded here.

By UniProt entry, the sequences of proteins in these tests, tags left out.
UniProt P35222: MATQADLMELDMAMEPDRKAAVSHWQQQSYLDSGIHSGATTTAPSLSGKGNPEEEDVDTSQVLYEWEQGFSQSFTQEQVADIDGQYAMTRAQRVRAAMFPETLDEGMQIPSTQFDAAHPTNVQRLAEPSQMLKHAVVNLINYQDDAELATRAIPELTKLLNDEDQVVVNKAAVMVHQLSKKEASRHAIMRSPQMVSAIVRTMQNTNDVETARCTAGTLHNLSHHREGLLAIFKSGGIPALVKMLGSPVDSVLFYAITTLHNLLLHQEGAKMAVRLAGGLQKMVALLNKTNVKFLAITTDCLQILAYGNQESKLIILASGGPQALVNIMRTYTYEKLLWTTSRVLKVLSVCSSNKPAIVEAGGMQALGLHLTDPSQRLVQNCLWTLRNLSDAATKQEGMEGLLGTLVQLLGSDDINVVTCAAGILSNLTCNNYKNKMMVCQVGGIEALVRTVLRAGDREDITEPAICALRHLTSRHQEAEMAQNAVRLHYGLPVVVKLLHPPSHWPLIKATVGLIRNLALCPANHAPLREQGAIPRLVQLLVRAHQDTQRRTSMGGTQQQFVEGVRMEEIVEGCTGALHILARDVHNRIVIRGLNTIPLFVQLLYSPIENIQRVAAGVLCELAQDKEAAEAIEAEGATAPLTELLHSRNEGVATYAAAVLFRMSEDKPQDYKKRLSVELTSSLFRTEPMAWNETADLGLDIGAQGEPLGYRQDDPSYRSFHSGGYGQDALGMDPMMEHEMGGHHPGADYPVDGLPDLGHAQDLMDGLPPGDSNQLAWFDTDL
UniProt Q16665: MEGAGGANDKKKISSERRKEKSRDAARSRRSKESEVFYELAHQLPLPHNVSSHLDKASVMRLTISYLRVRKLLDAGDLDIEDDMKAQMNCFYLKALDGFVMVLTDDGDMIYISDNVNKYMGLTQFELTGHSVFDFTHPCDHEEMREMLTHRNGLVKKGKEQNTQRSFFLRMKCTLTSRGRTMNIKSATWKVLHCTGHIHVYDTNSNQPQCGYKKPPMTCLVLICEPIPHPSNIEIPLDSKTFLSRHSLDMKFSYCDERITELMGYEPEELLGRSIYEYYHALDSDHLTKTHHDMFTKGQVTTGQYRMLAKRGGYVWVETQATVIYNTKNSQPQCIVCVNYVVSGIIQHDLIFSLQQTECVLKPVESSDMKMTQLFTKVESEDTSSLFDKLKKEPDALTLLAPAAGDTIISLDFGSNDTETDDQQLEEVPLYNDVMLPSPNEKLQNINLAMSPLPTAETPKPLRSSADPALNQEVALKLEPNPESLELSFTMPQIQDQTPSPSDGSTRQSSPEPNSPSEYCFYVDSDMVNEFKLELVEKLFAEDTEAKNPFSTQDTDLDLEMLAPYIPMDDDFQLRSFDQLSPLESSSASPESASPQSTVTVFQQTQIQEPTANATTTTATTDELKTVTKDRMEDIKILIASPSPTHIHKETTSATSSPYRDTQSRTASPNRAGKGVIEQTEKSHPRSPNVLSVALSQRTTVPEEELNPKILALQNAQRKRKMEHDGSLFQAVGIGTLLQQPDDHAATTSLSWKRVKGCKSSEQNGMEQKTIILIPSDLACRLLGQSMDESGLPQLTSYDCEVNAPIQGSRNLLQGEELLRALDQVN
UniProt P36402: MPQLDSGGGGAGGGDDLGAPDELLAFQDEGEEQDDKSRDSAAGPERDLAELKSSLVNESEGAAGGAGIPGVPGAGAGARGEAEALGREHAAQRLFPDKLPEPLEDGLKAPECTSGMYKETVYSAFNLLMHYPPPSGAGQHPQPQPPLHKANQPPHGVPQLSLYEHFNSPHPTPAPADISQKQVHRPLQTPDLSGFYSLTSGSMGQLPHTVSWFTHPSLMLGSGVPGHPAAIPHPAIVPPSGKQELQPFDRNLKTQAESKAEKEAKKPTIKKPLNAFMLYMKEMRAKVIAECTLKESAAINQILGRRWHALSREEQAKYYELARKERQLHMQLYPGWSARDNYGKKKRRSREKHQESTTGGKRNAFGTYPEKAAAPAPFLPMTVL
UniProt Q9NQB0: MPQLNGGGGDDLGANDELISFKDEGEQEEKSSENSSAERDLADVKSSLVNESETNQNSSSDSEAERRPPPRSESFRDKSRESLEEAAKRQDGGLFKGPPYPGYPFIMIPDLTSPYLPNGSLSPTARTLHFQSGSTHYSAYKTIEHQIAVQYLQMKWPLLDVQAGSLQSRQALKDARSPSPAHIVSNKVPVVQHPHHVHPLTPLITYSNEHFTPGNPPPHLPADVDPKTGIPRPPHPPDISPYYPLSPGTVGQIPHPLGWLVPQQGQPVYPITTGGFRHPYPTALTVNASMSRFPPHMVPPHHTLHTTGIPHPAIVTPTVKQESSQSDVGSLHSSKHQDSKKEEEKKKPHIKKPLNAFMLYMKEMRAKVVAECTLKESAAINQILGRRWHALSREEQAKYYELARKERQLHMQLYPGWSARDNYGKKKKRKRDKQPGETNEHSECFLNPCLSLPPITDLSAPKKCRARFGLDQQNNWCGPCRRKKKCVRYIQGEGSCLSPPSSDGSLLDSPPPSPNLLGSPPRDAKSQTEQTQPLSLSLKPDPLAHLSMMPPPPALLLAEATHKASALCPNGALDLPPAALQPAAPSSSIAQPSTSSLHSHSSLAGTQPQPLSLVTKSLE

Tests used:
[1] = molecular target: β-catenin (human (endogenous in HCT8, HCT15 and LoVo)) (UniProt P35222); test: co-IP; lysates of 5-FU-R cells (HCT8; HCT15 and LoVo in Fig. S7); anti-β-catenin or anti-HIF-1α antibody covalently immobilised on AminoLink Plus resin (Pierce Co-IP Kit), IgG as negative control; lysis buffer Tris 0.025 M, NaCl 0.15 M, EDTA 0.001 M, NP-40 1%, glycerin 5%; overnight at 4 °C; eluate analysed by Western blotting
[2] = molecular target: β-catenin (human (endogenous in HCT8, HCT15 and LoVo)) (UniProt P35222); test: co-IP; lysates of WT cells (HCT8; HCT15 and LoVo in Fig. S7); anti-β-catenin or anti-HIF-1α antibody covalently immobilised on AminoLink Plus resin (Pierce Co-IP Kit), IgG as negative control; lysis buffer Tris 0.025 M, NaCl 0.15 M, EDTA 0.001 M, NP-40 1%, glycerin 5%; overnight at 4 °C; eluate analysed by Western blotting
[3] = molecular target: hypoxia inducible factor 1α (human (endogenous in HCT8, HCT15 and LoVo)) (UniProt Q16665); test: co-IP; lysates of 5-FU-R cells (HCT8; HCT15 and LoVo in Fig. S7); anti-β-catenin or anti-HIF-1α antibody covalently immobilised on AminoLink Plus resin (Pierce Co-IP Kit), IgG as negative control; lysis buffer Tris 0.025 M, NaCl 0.15 M, EDTA 0.001 M, NP-40 1%, glycerin 5%; overnight at 4 °C; eluate analysed by Western blotting
[4] = molecular target: hypoxia inducible factor 1α (human (endogenous in HCT8, HCT15 and LoVo)) (UniProt Q16665); test: co-IP; lysates of WT cells (HCT8; HCT15 and LoVo in Fig. S7); anti-β-catenin or anti-HIF-1α antibody covalently immobilised on AminoLink Plus resin (Pierce Co-IP Kit), IgG as negative control; lysis buffer Tris 0.025 M, NaCl 0.15 M, EDTA 0.001 M, NP-40 1%, glycerin 5%; overnight at 4 °C; eluate analysed by Western blotting

binding [1]	binding [3]	Substance	binding [2]	binding [4]
binds		hypoxia inducible factor 1α (from UniProt Q16665 1-826)	binds	
binds	binds	TCF1 (from UniProt P36402 1-384)	no binding (condition: in WT cells (not 5-FU-resistant))	no binding (condition: in WT cells (not 5-FU-resistant))
	no binding	TCF4 (from UniProt Q9NQB0 1-619)		no binding
